No constants are given. Whether binding was seen depends on the method and setting. Some binding calls cover weakened binding; strength is not graded here. For some assays here: Where a sequence is shown, tags or fusion partners need not be part of it.
Columns and labels:
USP5 (recombinant) = USP5 (recombinant) (UniProt P45974); test: covalent labelling by an activity-based probe (SDS-PAGE); labelling of USP5 by hISG15FL- and mISG15CTD-based probes (Supplementary Fig. 1B); conditions not shown
[1] = biological target: T1, His6-Hs.USP18 (16-372) (human) (UniProt Q9UMW8); test: SPR; BIAcore 3000; mouse and human USP18 immobilised via the N-terminal His6 tag on an NTA chip; 25 °C; 50 mM HEPES, 150 mM NaCl, 0.05 mM EDTA, 0.5 mM DTT, 0.01% P20, pH 7.5; 20 μL/min; Langmuir 1:1 model with drift; both purified
T1 sequence: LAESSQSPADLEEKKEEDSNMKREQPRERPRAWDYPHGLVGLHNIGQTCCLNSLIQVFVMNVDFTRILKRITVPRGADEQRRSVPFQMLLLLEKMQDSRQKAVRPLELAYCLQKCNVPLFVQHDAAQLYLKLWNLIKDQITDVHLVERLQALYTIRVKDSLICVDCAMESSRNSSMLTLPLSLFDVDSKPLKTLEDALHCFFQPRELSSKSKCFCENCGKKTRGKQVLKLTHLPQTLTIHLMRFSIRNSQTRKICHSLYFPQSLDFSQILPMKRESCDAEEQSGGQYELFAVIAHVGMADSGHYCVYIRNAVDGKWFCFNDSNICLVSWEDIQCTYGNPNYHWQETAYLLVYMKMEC

Amino acid sequences for entries named in this document (tags omitted). Residues count along the entry.
UniProt P45974: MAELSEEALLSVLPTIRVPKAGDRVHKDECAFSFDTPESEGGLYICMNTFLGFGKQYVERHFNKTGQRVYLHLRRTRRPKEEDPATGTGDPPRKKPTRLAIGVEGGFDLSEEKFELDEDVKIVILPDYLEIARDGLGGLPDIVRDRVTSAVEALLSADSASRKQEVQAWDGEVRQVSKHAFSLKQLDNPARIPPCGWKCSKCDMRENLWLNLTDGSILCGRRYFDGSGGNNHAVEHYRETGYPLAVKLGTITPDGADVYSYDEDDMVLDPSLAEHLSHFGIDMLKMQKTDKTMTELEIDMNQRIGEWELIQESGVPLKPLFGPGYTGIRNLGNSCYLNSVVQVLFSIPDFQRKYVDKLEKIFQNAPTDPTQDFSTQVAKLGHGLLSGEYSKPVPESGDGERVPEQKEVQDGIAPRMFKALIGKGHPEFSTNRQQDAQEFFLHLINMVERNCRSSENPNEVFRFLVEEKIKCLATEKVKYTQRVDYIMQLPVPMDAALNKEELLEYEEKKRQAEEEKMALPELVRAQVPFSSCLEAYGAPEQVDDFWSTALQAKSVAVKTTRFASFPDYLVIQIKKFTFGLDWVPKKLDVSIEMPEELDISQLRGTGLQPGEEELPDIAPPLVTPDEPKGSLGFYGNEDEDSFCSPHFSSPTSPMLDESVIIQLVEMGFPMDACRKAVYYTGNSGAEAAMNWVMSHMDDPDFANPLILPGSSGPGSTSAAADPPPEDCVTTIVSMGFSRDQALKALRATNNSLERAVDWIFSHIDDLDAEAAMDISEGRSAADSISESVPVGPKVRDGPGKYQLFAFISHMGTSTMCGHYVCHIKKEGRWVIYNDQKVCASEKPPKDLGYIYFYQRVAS
UniProt P05161, residues 1-157: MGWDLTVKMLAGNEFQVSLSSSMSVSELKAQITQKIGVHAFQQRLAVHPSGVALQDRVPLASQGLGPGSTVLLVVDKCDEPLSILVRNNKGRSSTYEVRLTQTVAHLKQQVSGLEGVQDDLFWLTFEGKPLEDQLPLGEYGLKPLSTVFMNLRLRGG
UniProt Q64339, residues 1-155: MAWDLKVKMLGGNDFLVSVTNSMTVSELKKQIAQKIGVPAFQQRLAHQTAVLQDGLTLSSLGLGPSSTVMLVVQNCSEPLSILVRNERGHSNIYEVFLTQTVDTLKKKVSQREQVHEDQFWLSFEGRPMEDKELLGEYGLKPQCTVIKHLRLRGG

Substance	binding (USP5 (recombinant))	binding [1]
hISG15FL-based probe (from UniProt P05161 1-157)	binds	–
mouse ISG15 (from UniProt Q64339 1-155)	–	binds

Source: article PMC11754618
